Results reported in US11464753B2, “Composition for treatment of neurodegenerative disease” (WINNING THE FIGHT INC., priority 2013, dated 2022).
At least one structure is not confirmed: it was looked up by name or label, or the drawing left a doubt.

Tested on: ALS patients
Experiment: Administration of AKG-containing compositions to human ALS patients, observation of symptoms
Settings: non-sublingual administration compared with sublingual administration

## NC(=O)C1=CN([C@@H]2O[C@H](COP(=O)(O)OP(=O)(O)OC[C@H]3O[C@@H](n4cnc5c(N)ncnc54)[C@H](O)[C@@H]3O)[C@@H](O)[C@H]2O)C=CC1 [NADH, nicotinamide adenine dinucleotide hydrate]
  effectiveness of NADH by route: ineffective
